The source of these data is PMC4389572.

No constants are given. Whether binding was seen depends on the method and setting.

The assay deals with SH3_(lin-wt), linear N-terminal SH3 domain of c-Crk (residues 134-190 with an additional Gly191) (murine). Description: NMR relaxation (backbone 1H T2 and overall rotational correlation time from 15N relaxation); ~1 mM protein in 20 mM sodium phosphate, 100 mM NaCl, 20 mM DTT-d10, 10% D2O, 0.2% NaN3, pH 7.2, 34°C; both purified.

B1: SH3_(lin-wt), linear N-terminal SH3 domain of c-Crk (residues 134-190 with an additional Gly191) (domain or fragment)
chain: AEYVRALFDFNGNDEEDLPFKKGDILRIRDKPEEQWWNAEDSEGKRGMIPVPYVEKYG
For the molecule B1, the binding result is “no binding (tested: ~1 mM)”.
